Results: PMC7854603
The exact form of at least one protein or probe is not confirmed. At least one verdict rests on a figure or table, not on a statement of the authors.

Protein sequences, listed by entry. Tags and fused reporters are not part of them. Residues count along the entry.
UniProt Q9Y3Z3, 114-626 T592D: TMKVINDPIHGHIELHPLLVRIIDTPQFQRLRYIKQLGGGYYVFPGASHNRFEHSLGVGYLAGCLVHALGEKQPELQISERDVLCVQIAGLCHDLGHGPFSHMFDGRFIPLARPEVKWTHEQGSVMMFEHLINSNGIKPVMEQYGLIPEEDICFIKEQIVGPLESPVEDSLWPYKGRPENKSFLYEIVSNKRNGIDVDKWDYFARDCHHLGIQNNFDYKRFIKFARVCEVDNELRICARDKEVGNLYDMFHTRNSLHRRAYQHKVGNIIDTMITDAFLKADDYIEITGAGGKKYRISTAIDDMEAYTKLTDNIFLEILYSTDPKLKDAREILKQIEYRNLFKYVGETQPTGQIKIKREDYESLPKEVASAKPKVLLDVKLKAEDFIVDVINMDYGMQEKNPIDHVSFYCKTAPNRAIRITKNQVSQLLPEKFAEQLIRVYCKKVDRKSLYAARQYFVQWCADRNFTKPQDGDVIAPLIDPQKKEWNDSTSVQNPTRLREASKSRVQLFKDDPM

Key:
SAMHD1 T592D = SAMHD1 T592D (UniProt Q9Y3Z3); assay: fluorescence anisotropy; conditions: no effect of mutation; phosphorothioate at linkages 1-4, mixed Rp/Sp; FA: 50 mM Tris pH 8, 100 mM NaCl, 5 mM MgCl2, 1 mM TCEP, 50 nM 6FAM-oligo (salt series with KCl 50-150 mM); SEC same buffer; recombinant protein; residues 114-626; label: 5'-6FAM; single-stranded DNA
SAMHD1 full-length WT = SAMHD1 full-length WT (UniProt Q9Y3Z3); assay: fluorescence anisotropy; conditions: not significantly different from HD domain; phosphorothioate at linkages 1-4, mixed Rp/Sp; FA: 50 mM Tris pH 8, 100 mM NaCl, 5 mM MgCl2, 1 mM TCEP, 50 nM 6FAM-oligo (salt series with KCl 50-150 mM); SEC same buffer; recombinant protein; residues 1-626; label: 5'-6FAM; single-stranded DNA

CGCCT [6FAM-d(C*G*C*C*T)]
binding result (SAMHD1 T592D): binds | binding result (SAMHD1 full-length WT): binds
